Results deposited as PubChem BioAssay AID1671195 (Yale University, 2021)
The deposit covers about 22,000 reagents; this is an unselected part. Of all reagents, about 1,510 (6.9%) got an active call. 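Active includes knockdowns raising or lowering LDL uptake; positive z-scores mean more uptake, negative mean less.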

- Screen: 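Genes whose knockdown alters LDL uptake in liver cancer cells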 (primary screen)
- System: human Huh7 hepatoma cells
- Knock-down reagent: siRNA pool against human genes, 18 nM
- Timing: about 2 to 2.5 days of knockdown, then 8 h LDL uptake
- Treatment: DiI-labelled LDL at 30 µg/ml for 8 h, in lipoprotein-deficient serum medium
- Measured: 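Per-cell DiI-LDL intensity by automated imaging; well means scaled to the plate median and given as a robust z-score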
- Direction: robust z-score: higher = more LDL uptake after knockdown
- Rule for the call: 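Active when two or more replicates show a robust z-score above 2 or below -2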

| target gene | robust z-score, replicate 1 | robust z-score, replicate 2 | robust z-score, replicate 3 | Outcome |
| --- | --- | --- | --- | --- |
| OR52N1 | 0.754 | -0.0391 | 0.29 | inactive |
| RPLP1P5 | 0.00376 | -0.834 | -0.617 | inactive |
| FXYD5 | -1.71 | -1.39 | -0.678 | inactive |
| CLCC1 | -0.234 | 0.607 | -0.38 | inactive |
| WDR41 | -3.26 | -2.59 | -3.52 | active |
| HERC2P6 | -1.06 | -1.3 | -0.687 | inactive |
| SAAL1 | -1.69 | -0.419 | -1.27 | inactive |
| UGT3A2 | 0.859 | 0.453 | 2.64 | inactive |
| SLC25A43 | -0.502 | -1.05 | -0.681 | inactive |
| ZMYM2 | 2.75 | -0.00903 | 0.884 | inactive |
| PSME4 | 0.192 | 1.69 | -0.915 | inactive |
| HSP90AA2P | -0.395 | -0.551 | -0.658 | inactive |
| LOC440858 (retired record) | 0.567 | 0.112 | 0.296 | inactive |
| LOC255519 (retired record) | 0.699 | 0.774 | 0.645 | inactive |
| SLC25A16 | 1.18 | 0.762 | 0.676 | inactive |
| SPRR2B | -1.19 | 0.587 | -0.188 | inactive |
| P3H1 | -0.284 | -0.728 | -0.521 | inactive |
| LIX1 | -1.34 | -1.46 | -1.78 | inactive |
| DBX2 | 1.05 | 0.584 | -0.668 | inactive |
| UGDH | -0.896 | -1.02 | -0.412 | inactive |
| RAB20 | 3.06 | 0.146 | 0.916 | inactive |
| SMTNL1 | 0.779 | -0.00869 | 0.0779 | inactive |
| RNF115 | 1.12 | 1.27 | 0.367 | inactive |

Continued (6 carried over from the part before).
| target gene | robust z-score, replicate 1 | robust z-score, replicate 2 | robust z-score, replicate 3 | Outcome |
| --- | --- | --- | --- | --- |
| LIX1 | -1.34 | -1.46 | -1.78 | inactive |
| DBX2 | 1.05 | 0.584 | -0.668 | inactive |
| UGDH | -0.896 | -1.02 | -0.412 | inactive |
| RAB20 | 3.06 | 0.146 | 0.916 | inactive |
| SMTNL1 | 0.779 | -0.00869 | 0.0779 | inactive |
| RNF115 | 1.12 | 1.27 | 0.367 | inactive |
| PTGFRN | 1.33 | 0.935 | 1.28 | inactive |
| PF4V1 | 0.785 | 0.241 | 0.722 | inactive |
| BDKRB2 | 0.74 | -0.195 | -0.517 | inactive |
| DNMT3B | 0.0856 | 0.278 | 0.206 | inactive |
| SIRT1 | -1.87 | -1.19 | -1.81 | inactive |
| EME1 | -2.25 | -1.65 | -1.38 | inactive |
| PNPLA8 | 1.61 | 0.717 | 1.1 | inactive |
| LINC00924 | 1.74 | 1.74 | 2.71 | inactive |
| BCR | 1.11 | 1.27 | 1.37 | inactive |
| CA7 | 0.0725 | -0.37 | 0.143 | inactive |
| STX11 | -0.354 | -0.151 | -0.614 | inactive |
| LINC02538 | 1.4 | 0.939 | 1.1 | inactive |
| C16orf46 | 0.892 | 0.334 | 0.76 | inactive |
| AQP7 | -0.359 | -0.332 | -0.769 | inactive |
| AMMECR1 | -1.42 | -1.04 | 0.96 | inactive |
| RMP24 | 4.09 | 4.1 | 3.68 | active |
| ST6GALNAC4 | -0.367 | -0.675 | -0.106 | inactive |
| HTT | 0.593 | 0.0736 | 1.68 | inactive |
| DYDC2 | -1.1 | -0.422 | -1.11 | inactive |
| CRTC2 | 0.0662 | 0.0858 | 0.0698 | inactive |
| GNAS | 0.459 | -0.0816 | 0.682 | inactive |
| CYP11B1 | 0.932 | 0.869 | 0.395 | inactive |
| DLG3 | 1.49 | 1.87 | 2.19 | inactive |
